Reference: PubChem BioAssay AID1347075 (National Center for Advancing Translational Sciences (NCATS), 2019)
In all, about 400,000 compounds went through this assay and about 5,500 (1.4%) were called active. This list was built around the results that the source calls inconclusive (neither active nor inactive); the mix of calls is not that of the screen. Calls come from the whole dose curve; as a rule, active = well fitted cell-killing curve with a large enough effect; inconclusive = small, poorly fitted or top-dose-only effect, or effect the other way; inactive = flat fitted curve, though single readings scatter. A potency beside an inconclusive call is a rough fit, not a confirmed value.

Assay: qHTS assay for MDR1-selective chemotherapeutics: Primary screen using the parental adenocarcinoma cell KB-3-1; note: nearly all actives have a fitted effect of over 60% in size
Details: KB-3-1 viability, CellTiter-Glo ATP luminescence, 72 h; series mostly up to 46.1 µM
How it was run: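 Using CellTiter-Glo luminescence, growth of non-resistant KB-3-1 adenocarcinoma cells is assessed 72 h after pin-tool compound addition at 37 °C. Normalized responses across the concentration series yield fitted curves.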
Potency is the fitted concentration of half-maximal effect.

Compound	Potency
COc1ccc(CCNC(=O)CSc2n[nH]c(N)n2)cc1	inconclusive: 0.206 µM [cytotoxic, full curve]
Cc1nn(-c2ccccc2)cc1/C=N/NC(N)=S	inconclusive: 18.4 µM [cytotoxic, single point]
CNc1nc(Nc2ccc(C)cc2C)c2sccc2n1	active: 18.4 µM
CCC(=O)NC(Nc1sc2c(c1C(=O)OC)CCCC2)(C(F)(F)F)C(F)(F)F	inactive
Cc1occc1C(=O)NCCCCNC(=O)c1ccoc1C	inconclusive: 1.03 µM [rising, full curve]
CSc1ccc(CN2CCC(Oc3cccc(C(=O)N4CCCC4)c3)CC2)cc1	inconclusive: 29.1 µM [cytotoxic, single point]
CCOC(=O)N1CCN(Cc2nc3cc(NC(=O)CC)ccc3n2CC)CC1	inconclusive: 29.1 µM [cytotoxic, single point]
COc1cc(C(=O)N2CC(=O)Nc3ccccc32)cc(OC)c1OC	inconclusive: 20.6 µM [cytotoxic, single point]
O=C(Nc1ccc(N2CCN(C(=O)c3ccco3)CC2)cc1)c1cc(Br)ccc1Cl	inconclusive: 11.6 µM [cytotoxic, partial curve, poor fit]
COC(=O)C1=CN(c2cc(C)cc(C)c2)C=C(C(=O)OC)C1c1ccc(OC)c(O)c1	inconclusive: 25.9 µM [cytotoxic, partial curve, poor fit]
COc1ccc(-c2nn(-c3ccccc3)cc2/C=C2/SC(=S)N(Cc3ccco3)C2=O)c(C)c1	inconclusive: 16.4 µM [cytotoxic, partial curve, poor fit]
NS(=O)(=O)c1ccc(CCNC(=O)c2ccc(Cl)c(S(=O)(=O)NCc3ccco3)c2)cc1	inconclusive: 29.1 µM [rising, single point]
CC(C)(C)n1ncc2c(=O)n(CC(=O)N3CCCC3)cnc21	inconclusive: 29.1 µM [rising, single point]
CC(NNC(=S)N1CCN(c2ccccn2)CC1)c1nccc2ccccc12 (stereo unspecified)	inconclusive: 1.84 µM [cytotoxic, full curve]
O=C(c1ccc2c(c1)OCO2)C1CCCN(Cc2cccn2-c2cccnc2)C1 (stereo unspecified)	inactive
CC(C)c1cc(C(=O)NNC(=S)NCc2ccco2)c(O)c(C(C)C)c1	inactive
O=C(NCc1ccc(F)cc1)C1CCCN1C(=O)Nc1cccc(F)c1 (stereo unspecified)	inactive
CN(c1ccccc1)S(=O)(=O)c1cc(C(=O)Nc2ccccc2N2CCOCC2)ccc1Cl	inconclusive: 32.6 µM [cytotoxic, single point]
CCOC(=O)c1c(-c2ccccc2)oc2ccc(O)c(CN3CCCC3)c12	inconclusive: 22.4 µM [cytotoxic, single point]
COc1cc(C(=O)N=c2sc3c(C)ccc(OC)c3n2C)cc(OC)c1OC	inconclusive: 0.411 µM [cytotoxic, full curve]
O=C(O)c1ccccc1/C=N/Nc1ccc(S(=O)(=O)N2CCCC2)cc1[N+](=O)[O-]	inconclusive: 20.6 µM [cytotoxic, single point]

A second format for part of the listing above.
Compound,Potency
COc1ccc(CCNC(=O)CSc2n[nH]c(N)n2)cc1,"inconclusive: 0.206 µM [cytotoxic, full curve]"
CNc1nc(Nc2ccc(C)cc2C)c2sccc2n1,active: 18.4 µM
COc1cc(C(=O)N=c2sc3c(C)ccc(OC)c3n2C)cc(OC)c1OC,"inconclusive: 0.411 µM [cytotoxic, full curve]"

The results go on.

Compound	Potency
Cc1cccc(OCCNC(=O)c2cccc(Oc3ccc(C(F)(F)F)cc3[N+](=O)[O-])c2)c1	active: 18.4 µM
O=C(c1cc2ccccc2oc1=O)N1CCCN(C(=O)c2cc3ccccc3oc2=O)CC1	inactive
CC12CC(NC(=O)N1c1ccc(C(=O)N3CCN(c4ccc(F)cc4)CC3)cc1)c1ccccc1O2 (stereo unspecified)	inconclusive: 23.1 µM [cytotoxic, single point]
CCCCCCCCn1c2c(c(=N)c3ccccc31)CCC2	active: 3.26 µM
CCOCc1nnc(NC(=O)C2CCN(C(=O)C3CC(=O)N(c4ccc(C)cc4)C3)CC2)s1 (stereo unspecified)	inactive
COC(=O)c1c(NC(=O)COc2ccc(Cl)cc2Cl)sc2c1CC(C)(C)NC2(C)C	inconclusive: 29.1 µM [cytotoxic, single point]
OC(CNCCc1ccc(Cl)cc1)COc1cc(Cl)ccc1Cl (stereo unspecified)	inconclusive: 29.1 µM [cytotoxic, single point]
O=C1Nc2ccc(F)cc2C12OCCO2	inconclusive: 25.9 µM [cytotoxic, partial curve, poor fit]
O=C(Cn1c(=O)oc2cc(S(=O)(=O)NCc3ccccc3)ccc21)NCc1ccccc1Cl	inconclusive: 9.2 µM [cytotoxic, partial curve, poor fit]
O=C(Cc1n[nH]c(=O)c2ccccc12)OCc1c(Cl)cccc1Cl	inconclusive: 5.8 µM [cytotoxic, partial curve]
Nc1ccc2nc(-c3ccc(O)cc3)sc2c1	inconclusive: 18.4 µM [cytotoxic, single point]
CCN(CC)CCNc1cc(C)c(C#N)c2nc3ccccc3n12	inconclusive: 0.0073 µM [rising, full curve, poor fit]
C[C@]12c3[nH]c4cc(-c5ccco5)ccc4c3CCN1C(=O)[C@@H](CC(=O)NCc1ccco1)C[C@@H]2C(=O)N1CCCCC1	inconclusive: 29.1 µM [cytotoxic, single point]
COc1ccc(S(=O)(=O)NCc2cc(=O)n(C)c(=O)n2C)cc1F	inactive
CN(Cc1ccccc1)C(=O)C1CCC(CNS(=O)(=O)c2ccc3c(c2)CCCC(=O)N3)CC1 (stereo unspecified)	inconclusive: 4.61 µM [cytotoxic, full curve, poor fit]
Cc1nc(Sc2ccc(Br)cc2)c(C#N)c(C)c1[N+](=O)[O-]	inconclusive: 20.6 µM [cytotoxic, single point]
Cc1ccccc1N(CC(=O)N/N=C/c1ccc(Cl)cc1)C(=O)c1ccccc1	inconclusive: 29.1 µM [cytotoxic, single point]
CC(C)c1ccccc1OCC(=O)N1CCCCCCC1	inconclusive: 0.0146 µM [rising, full curve]
CCc1nc2ccc(C(=O)Nc3cc(-c4ccccc4)ccc3OC)cn2c1N(CC)CCN(C)C	inconclusive: 29.1 µM [cytotoxic, single point]
Cc1nn(C)cc1CN(C)C(=O)CCc1nnc(CCC2CCCCC2)o1	inconclusive: 0.0231 µM [rising, full curve]
